# Paper PMC5642895
# No constants are given. Whether binding was seen depends on the method and setting.
# Target: KLC2-TPR^[A1-B6] (mouse kinesin light chain 2 TPR domain, TPR motifs 1 to 6, residues 190–484) (mouse) (UniProt O88448)
# Assay: SEC-MALS; SEC-MALLS of KLC2-TPR[A1-B6] on Superdex 200 10/300 GL increase, 20mM Hepes pH 7.0, 300mM (salt not given), 0.5 ml/min; both purified
binder,measurement,value
"KLC2-TPR^[A1-B6] (mouse kinesin light chain 2 TPR domain, TPR motifs 1 to 6, residues 190–484) (domain or fragment, UniProt O88448 190-484) GYEIPARLRTLHNLVIQYASQGRYEVAVPLCKQALEDLEKTSGHDHPDVATMLNILALVYRDQNKYKDAAHLLNDALAIREKTLGKDHPAVAATLNNLAVLYGKRGKYKEAEPLCKRALEIREKVLGKFHPDVAKQLSNLALLCQNQGKAEEVEYYYRRALEIYATRLGPDDPNVAKTKNNLASCYLKQGKYQDAETLYKEILTRAHEKEFGSVNGENKPIWMHAEEREESKDKRRDRRPMEYGSWYKACKVDSPTVNTTLRTLGALYRPEGKLEAAHTLEDCASRSRKQGLDPA",binding,no binding
